# Results: patent publication US20030108484A1, “Individualization of therapy with antineoplastic agents” (McGill University, priority 2001, published 2003)
# System: 1X-Ab
# Test: Effect of the ratio 1U:1X on the determination of 1X concentration by ELISA
# Type: binding, rabbit
# Conditions: fixed 1X 3 × 10^−6 M
structure (smiles),measurement,setting,value
"Cn1c(=O)[nH]c2nc[nH]c2c1=O [1-Methyl Xanthine (1X), 1-Methyl Xanthine]",[1X] × 10^6 (M),1U:1X ratio 0.0,3.00 × 10^6 (M)
same,[1X] × 10^6 (M),1U:1X ratio 0.50,2.75 × 10^6 (M)
same,[1X] × 10^6 (M),1U:1X ratio 1.00,3.25 × 10^6 (M)
same,[1X] × 10^6 (M),1U:1X ratio 1.50,3.25 × 10^6 (M)
same,[1X] × 10^6 (M),1U:1X ratio 2.00,3.60 × 10^6 (M)
same,[1X] × 10^6 (M),1U:1X ratio 2.50,3.65 × 10^6 (M)
same,[1X] × 10^6 (M),1U:1X ratio 3.00,3.95 × 10^6 (M)
same,[1X] × 10^6 (M),1U:1X ratio 4.00,4.20 × 10^6 (M)
same,[1X] × 10^6 (M),1U:1X ratio 5.00,4.30 × 10^6 (M)
same,[1X] × 10^6 (M),1U:1X ratio 6.00,4.50 × 10^6 (M)
same,[1X] × 10^6 (M),1U:1X ratio 8.00,4.30 × 10^6 (M)
